Experimental data published in PMC10070108.
No constants are given. Whether binding was seen depends on the method and setting. In cells and extracts the contact can be indirect. Some binding calls cover weakened binding; strength is not graded here. Values belong to the binder of their own block, whether it stands above or below them.

Amino acid sequences for entries named in this document (tags omitted).
UniProt E9Q557: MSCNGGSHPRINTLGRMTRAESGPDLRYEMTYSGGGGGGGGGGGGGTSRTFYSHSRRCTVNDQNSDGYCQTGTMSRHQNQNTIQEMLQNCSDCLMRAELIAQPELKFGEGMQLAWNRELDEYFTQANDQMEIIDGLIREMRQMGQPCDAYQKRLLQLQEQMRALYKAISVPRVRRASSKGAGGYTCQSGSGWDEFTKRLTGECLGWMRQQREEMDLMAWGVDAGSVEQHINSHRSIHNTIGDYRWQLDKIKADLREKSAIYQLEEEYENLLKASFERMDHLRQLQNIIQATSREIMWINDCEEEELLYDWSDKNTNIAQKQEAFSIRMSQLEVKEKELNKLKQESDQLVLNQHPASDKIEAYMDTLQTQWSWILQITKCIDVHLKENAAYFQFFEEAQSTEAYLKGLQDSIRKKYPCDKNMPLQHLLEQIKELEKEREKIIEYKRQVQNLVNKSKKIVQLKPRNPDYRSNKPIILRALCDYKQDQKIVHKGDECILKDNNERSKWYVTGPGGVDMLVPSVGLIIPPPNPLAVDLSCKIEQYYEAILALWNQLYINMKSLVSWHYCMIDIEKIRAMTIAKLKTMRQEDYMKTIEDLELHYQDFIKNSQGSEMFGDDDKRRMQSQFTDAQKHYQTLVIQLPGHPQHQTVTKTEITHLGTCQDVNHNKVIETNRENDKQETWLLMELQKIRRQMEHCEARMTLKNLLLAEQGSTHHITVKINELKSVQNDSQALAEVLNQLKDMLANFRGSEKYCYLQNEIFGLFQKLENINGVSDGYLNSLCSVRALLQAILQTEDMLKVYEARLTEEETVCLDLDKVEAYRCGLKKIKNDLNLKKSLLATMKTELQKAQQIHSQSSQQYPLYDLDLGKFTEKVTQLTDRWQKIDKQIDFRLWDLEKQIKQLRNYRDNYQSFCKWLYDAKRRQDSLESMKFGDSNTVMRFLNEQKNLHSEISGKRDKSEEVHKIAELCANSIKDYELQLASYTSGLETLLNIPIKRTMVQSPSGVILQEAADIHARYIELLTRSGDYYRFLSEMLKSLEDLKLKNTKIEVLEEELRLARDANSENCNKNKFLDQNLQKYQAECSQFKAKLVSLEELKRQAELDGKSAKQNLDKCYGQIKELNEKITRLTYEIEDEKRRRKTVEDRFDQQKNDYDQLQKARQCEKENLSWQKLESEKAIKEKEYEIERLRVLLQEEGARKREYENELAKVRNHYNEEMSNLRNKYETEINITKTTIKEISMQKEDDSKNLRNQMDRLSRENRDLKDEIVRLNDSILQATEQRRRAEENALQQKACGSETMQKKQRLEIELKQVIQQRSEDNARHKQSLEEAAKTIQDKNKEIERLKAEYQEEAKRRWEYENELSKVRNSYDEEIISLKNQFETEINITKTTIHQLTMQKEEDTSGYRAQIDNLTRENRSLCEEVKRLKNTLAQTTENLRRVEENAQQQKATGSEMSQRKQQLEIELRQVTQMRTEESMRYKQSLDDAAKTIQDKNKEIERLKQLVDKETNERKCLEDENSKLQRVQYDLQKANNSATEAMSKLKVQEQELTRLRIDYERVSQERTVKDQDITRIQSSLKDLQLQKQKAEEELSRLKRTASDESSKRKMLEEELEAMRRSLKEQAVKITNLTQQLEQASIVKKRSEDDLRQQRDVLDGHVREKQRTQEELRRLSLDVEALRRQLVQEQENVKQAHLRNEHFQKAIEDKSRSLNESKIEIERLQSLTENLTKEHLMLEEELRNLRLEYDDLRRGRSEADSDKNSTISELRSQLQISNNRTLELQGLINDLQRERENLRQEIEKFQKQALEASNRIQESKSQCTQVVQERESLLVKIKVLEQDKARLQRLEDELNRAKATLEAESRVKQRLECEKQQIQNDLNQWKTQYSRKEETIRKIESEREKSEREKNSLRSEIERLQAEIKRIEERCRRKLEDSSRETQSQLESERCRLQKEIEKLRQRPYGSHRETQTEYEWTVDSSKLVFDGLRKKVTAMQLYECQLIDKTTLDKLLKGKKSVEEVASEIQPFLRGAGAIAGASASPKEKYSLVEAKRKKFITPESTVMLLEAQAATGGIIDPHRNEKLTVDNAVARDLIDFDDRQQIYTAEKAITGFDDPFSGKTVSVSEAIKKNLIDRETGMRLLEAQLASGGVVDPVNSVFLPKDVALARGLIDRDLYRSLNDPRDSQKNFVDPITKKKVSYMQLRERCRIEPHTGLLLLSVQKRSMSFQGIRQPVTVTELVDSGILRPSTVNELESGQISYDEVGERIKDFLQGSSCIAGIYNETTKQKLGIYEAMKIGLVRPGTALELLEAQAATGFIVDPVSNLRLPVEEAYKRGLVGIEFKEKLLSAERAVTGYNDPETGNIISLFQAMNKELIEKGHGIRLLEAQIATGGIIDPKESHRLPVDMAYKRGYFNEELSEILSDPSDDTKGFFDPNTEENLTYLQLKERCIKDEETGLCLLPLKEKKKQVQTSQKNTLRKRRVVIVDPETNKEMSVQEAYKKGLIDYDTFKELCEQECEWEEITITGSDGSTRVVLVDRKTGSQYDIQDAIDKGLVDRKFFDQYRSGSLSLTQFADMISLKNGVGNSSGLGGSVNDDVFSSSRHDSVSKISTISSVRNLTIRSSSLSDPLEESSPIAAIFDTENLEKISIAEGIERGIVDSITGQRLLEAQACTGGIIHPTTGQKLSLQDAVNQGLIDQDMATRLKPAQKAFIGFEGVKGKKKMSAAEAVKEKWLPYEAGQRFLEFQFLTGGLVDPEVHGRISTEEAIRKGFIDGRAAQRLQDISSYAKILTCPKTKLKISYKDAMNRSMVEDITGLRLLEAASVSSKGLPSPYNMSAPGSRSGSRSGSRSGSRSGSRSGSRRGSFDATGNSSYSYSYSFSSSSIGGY

Key:
[1] = molecular target: T1, desmoglein 2 (mouse (endogenous in HL-1)) (UniProt O55111); test: co-IP; DSG2 immunoprecipitated from HL-1 lysates (RIPA lysis buffer); 1 ug antibody to 1.5 mg lysate overnight at 4°C, Protein G Dynabeads, washes incl. 2 M urea buffer; immunoblots for EGFR, PG, DP, PKP2; cells with or without erlotinib (complex not altered)
T1 sequence: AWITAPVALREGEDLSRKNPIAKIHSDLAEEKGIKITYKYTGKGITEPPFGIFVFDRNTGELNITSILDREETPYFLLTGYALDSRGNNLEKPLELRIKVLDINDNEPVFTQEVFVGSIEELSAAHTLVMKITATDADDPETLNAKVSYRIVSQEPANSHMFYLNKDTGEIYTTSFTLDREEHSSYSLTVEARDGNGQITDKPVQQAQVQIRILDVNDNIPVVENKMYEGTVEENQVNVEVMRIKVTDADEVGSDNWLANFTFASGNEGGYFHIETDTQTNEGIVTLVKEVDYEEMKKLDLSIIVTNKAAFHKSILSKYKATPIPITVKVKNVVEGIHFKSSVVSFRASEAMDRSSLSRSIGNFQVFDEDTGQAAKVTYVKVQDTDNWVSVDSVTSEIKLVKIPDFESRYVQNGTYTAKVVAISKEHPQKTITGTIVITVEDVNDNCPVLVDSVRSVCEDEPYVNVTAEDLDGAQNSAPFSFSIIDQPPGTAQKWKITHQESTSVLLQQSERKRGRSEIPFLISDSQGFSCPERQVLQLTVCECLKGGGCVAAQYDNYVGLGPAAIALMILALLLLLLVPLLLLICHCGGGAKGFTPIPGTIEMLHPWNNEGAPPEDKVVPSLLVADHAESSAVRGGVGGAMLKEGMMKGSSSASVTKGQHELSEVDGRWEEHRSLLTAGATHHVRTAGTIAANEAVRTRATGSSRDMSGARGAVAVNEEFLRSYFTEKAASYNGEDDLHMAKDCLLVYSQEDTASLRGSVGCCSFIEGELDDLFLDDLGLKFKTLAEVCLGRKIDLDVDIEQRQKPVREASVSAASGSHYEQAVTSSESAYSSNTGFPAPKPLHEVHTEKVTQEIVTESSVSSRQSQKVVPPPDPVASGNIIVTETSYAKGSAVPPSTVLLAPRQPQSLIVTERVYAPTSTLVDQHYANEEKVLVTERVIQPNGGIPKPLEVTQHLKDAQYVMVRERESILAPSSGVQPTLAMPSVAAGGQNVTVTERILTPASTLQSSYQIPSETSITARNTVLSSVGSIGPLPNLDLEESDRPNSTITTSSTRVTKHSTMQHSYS

[2] = molecular target: desmoplakin (mouse (endogenous in HL-1)) (UniProt E9Q557); test: co-IP; DP immunoprecipitated from HL-1 lysates (RIPA lysis buffer); 1 ug antibody to 1.5 mg lysate overnight at 4°C, Protein G Dynabeads, washes incl. 2 M urea buffer; immunoblots for EGFR, DSG2, PKP2, PG; cells treated with vehicle, erlotinib or PP2 (no significant changes)

- binding [1]: binds
- binding [2]: binds
B1: plakophilin 2 (protein, UniProt Q9CQ73 1-795)
chain: MAVPGSLAECGYIRTVLGQQILGHLDSSSLALPSEARLRLAGSSGRGDPAARSQRIQEQVQQTLARRGRSSAVSGNLHRTSSVPEYVYKLHVVENDFVGRQSPVTRDYDMLKAGMTATYGSRWGRAAAQYSSQKSVEERSWRQPLRRLEISPDSSPERAHYGHSEYQYAWRSHVVPGGRLTLPRYARSEILGLRQAGTARRPPGCGSFSDAVFDNGPLKPTMPTHPPGTSHSAGSLLEETTVRVSQARLQSTQSRTARSSWPRSSVRSSLREPGRMLTTAGQAAVGSGDAHGDRSVFADAQLGNADIEMTLERAVNMLDADHVPVSKISAAATFIQHESFQKSEARKRVNQLRGIPKLLQLLKLQNEDVQRAACGALRNLVFEDNDNKLEVAELNGVPRLLQVLKQTRDLETKKQITGLLWNLSSSDKLKHLMITEALLTLTESVIIPFSGWPEGDYPKANGLLDFDIFYNVTGCLRNMSSAGPDGRKMMRRCDGLIDSLVHYVRGTIADYQPDDKATENCVCILHNLSYQLEAELPEKYSQSIYMQNRNIQTNSNKSIGCFGSRSRKLKEQYQDLQMPEERSNPHGIEWLWHSIVIRMYLSLIAKSTRNYTQEASLGALQNLTAGGGPIPTLVARMVVQKENGLQHTRKMLHVGDPSVKKTAVSLLRNLSRNLSLQNEIAKETLPDLVSIIPDTVPSTDLLIETTASACYTLNNLMQNSYQNARDLLNTGGLQKIMTISIGEGYAPNKASKAASVLLYSLWAHTELHHAYKKAQFKKTDFVNSRTAKAYHSLKD

- binding [2]: binds
B2: desmoglein 2 (protein, UniProt O55111 55-1122)
chain: T1 sequence
